Measured values: PubChem BioAssay (Tox21)
Inconclusive means that the source gave no clear call. Such entries were picked first, then a sample of the others. Potencies of inconclusive entries are doubtful fits and often do not repeat. Calls of active or inactive are those of the source. Calls follow the shape of the dose curve; as a rule, active = well fitted activation curve with a large enough effect in the repeat runs; inconclusive = weak or mixed curves; inactive = no such curve, though single readings can be large or run the other way.

Protein sequences, listed by entry. Tags and fused reporters are not part of them. Lines headed by an entry give the natural chain unless they say otherwise; changes in a name come on top.
UniProt O75469: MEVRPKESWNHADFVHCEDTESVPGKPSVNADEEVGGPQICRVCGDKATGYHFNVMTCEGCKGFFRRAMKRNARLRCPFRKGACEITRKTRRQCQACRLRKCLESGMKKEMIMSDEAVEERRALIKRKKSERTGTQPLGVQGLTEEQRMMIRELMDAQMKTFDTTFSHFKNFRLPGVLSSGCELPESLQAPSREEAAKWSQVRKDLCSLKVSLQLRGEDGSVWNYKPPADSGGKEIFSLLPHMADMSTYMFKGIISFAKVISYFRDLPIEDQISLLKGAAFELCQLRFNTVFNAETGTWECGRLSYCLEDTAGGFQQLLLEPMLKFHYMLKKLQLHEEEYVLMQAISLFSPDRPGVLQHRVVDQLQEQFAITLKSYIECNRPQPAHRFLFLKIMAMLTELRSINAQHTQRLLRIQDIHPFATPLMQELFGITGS

The compounds below were run against Nuclear receptor subfamily 1 group I member 2 (Homo sapiens) (UniProt O75469) (assay: Human pregnane X receptor (PXR) small molecule agonists, qHTS assay (AID 1346982; also: nearly all actives have a fitted effect of over 35% in size)). Settings: PXR-Luc HepG2, CYP3A4 luciferase reporter, 24 h; series mostly up to 92.4 µM.
In short: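 Agonist mode qHTS: PXR-Luc HepG2 cells plated 5 hr before DMSO-dissolved compounds were pinned in, cultured 24 hr at 37 C, 5% CO2; ONE-Glo luminescence readout.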
% is scaled to controls: 0 for no effect and ±100 for the full control effect; potency is read from the fitted curve at half-maximal effect.

Structure (SMILES)	Potency	activation
Nc1nc(N)c(-c2ccccc2)s1	inactive	–
CC(C)(C)[C@@H](O)[C@@H](Cc1ccc(Cl)cc1)n1cncn1	inconclusive: 54.4 µM [activator, partial curve]	–
[O]=[Bi]	–	inactive: 1.61% [at 8.39 µM]
NNS(=O)(=O)c1ccc(Oc2ccc(S(=O)(=O)NN)cc2)cc1	inconclusive: 27.3 µM [activator, single point]	–
COc1ccc2nc(NC(=O)Nc3ccccc3)sc2c1	active: 1.88 µM	–
CC(C)(c1ccc(Oc2ccc3c(c2)C(=O)OC3=O)cc1)c1ccc(Oc2ccc3c(c2)C(=O)OC3=O)cc1	inconclusive: 68.2 µM [activator, single point]	–
Nc1ccccc1[N+](=O)[O-]	inconclusive: 69.1 µM [activator, single point]	–
